No constants are given. Whether binding was seen depends on the method and setting. For some of these results: Binding seen in cells or lysates may run through a third protein. For some of these results: A result given as binding can be weak or reduced; the word gives no strength. For some of these results: Tags and fused reporters may be left off the sequences shown. Blank lines part the entries; values can stand above or below the binder they belong to.
Tests used:
[1] = biological target: 3FLAG/HA-tagged Drosophila KANSL1 (Drosophila melanogaster); assay: pull-down; recombinant 3FLAG/HA protein at 100 nM incubated in CSF-arrested Xenopus egg extract with 10 uM RanGTPQ69L, retrieved on Protein A Dynabeads coupled with anti-HA antibodies; western blot of the beads; only the target purified
[2] = biological target: 3FLAG/HA-tagged Drosophila KANSL3 (Drosophila melanogaster); assay: as above
[3] = biological target: Drosophila KANSL3 tagged with 3FLAG (Drosophila); assay: pull-down; all seven members co-expressed in SF21 cells, only KANSL3 tagged (3FLAG); cell extract incubated with FLAG beads; done separately for the human and the Drosophila complex
[4] = biological target: taxol-stabilized microtubules (bovine tubulin) (bovine); assay: co-sedimentation; 3 uM taxol-stabilized microtubules with 250 nM recombinant protein, 30 min at 4 °C; pelleted through a 30% glycerol cushion at 100,000g; western blot of supernatant and pellet; both purified

binding [1]: binds
binding [2]: binds
B1: MCAK of Xenopus egg extract (protein, UniProt Q91636 1-730)
chain: MERLVATRLVTGLAVKIMRSNGVIHNANITSVNMDRSSVNVEWKEGEANKGKEISFADVISVNPELLDAVLAPTNVKENMPPQRNVSSQNHKRKTISKIPAPKEVAAKNSLLSESGAQSVLRERSTRMTAIHETLPYENEMEAESTPLPIQQNSVQARSRSTKVSIAEEPRLQTRISEIVEESLPSGRNNQGRRKSNIVKEMEKMKNKREEQRAQNYERRMKRAQDYDTSVPNWEFGKMIKEFRATMDCHRISMADPAEEHRICVCVRKRPLNKQELSKKEIDIISVPSKNIVLVHEPKLKVDLTKYLENQAFRFDFSFDETATNEVVYRFTARPLVQSIFEGGKATCFAYGQTGSGKTHTMGGDFSGKSQNVSKGVYAFASRDVFLLLDQPRYKHLDLDVFVTFFEIYNGKVFDLLNKKTKLRVLEDAKQEVQVVGLLEKQVISADDVFKMIEIGSACRTSGQTFANTSSSRSHACLQIILRRGSKLHGKFSLVDLAGNERGVDTASADRITRMEGAEINRSLLALKECIRALGQNKSHTPFRESKLTQILRDSFIGENSRTCMIAMLSPGFNSCEYTLNTLRYADRVKELSPQNAETNDDNLQMEDSGGSHASIEGLQLQDDFLLKDEELSTHNSFQDALNRVGELEDKAVDELRELVQKEPEWTNLLQMTEQPDYDLENFVMQAEYLIQERSKVLIALGDSINSLRLALQVEEQASKQISKKKRSNK

binding [3]: binds
B2: Drosophila MOF, untagged (protein, UniProt O02193 1-827)
chain: MSEAELEQTPSAGHVQEQPIEEEHEPEQEPTDAYTIGGPPRTPVEDAAAELSASLDVSGSDQSAEQSLDLSGVQAEAAAESEPPAKRQHRDISPISEDSTPASSTSTSSTRSSSSSRYDDVSEAEEAPPEPEPEQPQQQQQEEKKEDGQDQVKSPGPVELEAQEPAQPQKQKEVVDQEIETEDEPSSDTVICVADINPYGSGSNIDDFVMDPDAPPNAIITEVVTIPAPLHLKGTQQLGLPLAAPPPPPPPPAAEQVPETPASPTDDGEEPPAVYLSPYIRSRYMQESTPGLPTRLAPRDPRQRNMPPPAVVLPIQTVLSANVEAISDDSSETSSSDDDEEEEEDEDDALTMEHDNTSRETVITTGDPLMQKIDISENPDKIYFIRREDGTVHRGQVLQSRTTENAAAPDEYYVHYVGLNRRLDGWVGRHRISDNADDLGGITVLPAPPLAPDQPSTSREMLAQQAAAAAAASSERQKRAANKDYYLSYCENSRYDYSDRKMTRYQKRRYDEINHVQKSHAELTATQAALEKEHESITKIKYIDKLQFGNYEIDTWYFSPFPEEYGKARTLYVCEYCLKYMRFRSSYAYHLHECDRRRPPGREIYRKGNISIYEVNGKEESLYCQLLCLMAKLFLDHKVLYFDMDPFLFYILCETDKEGSHIVGYFSKEKKSLENYNVACILVLPPHQRKGFGKLLIAFSYELSRKEGVIGSPEKPLSDLGRLSYRSYWAYTLLELMKTRCAPEQITIKELSEMSGITHDDIIYTLQSMKMIKYWKGQNVICVTSKTIQDHLQLPQFKQPKLTIDTDYLVWSPQTAAAVVRAPGNSG

binding [4]: no binding (tested: 250 nM)
B3: 3FLAG/HA-tagged Drosophila males absent on the first (MOF) (protein, UniProt O02193 1-827)
chain: MSEAELEQTPSAGHVQEQPIEEEHEPEQEPTDAYTIGGPPRTPVEDAAAELSASLDVSGSDQSAEQSLDLSGVQAEAAAESEPPAKRQHRDISPISEDSTPASSTSTSSTRSSSSSRYDDVSEAEEAPPEPEPEQPQQQQQEEKKEDGQDQVKSPGPVELEAQEPAQPQKQKEVVDQEIETEDEPSSDTVICVADINPYGSGSNIDDFVMDPDAPPNAIITEVVTIPAPLHLKGTQQLGLPLAAPPPPPPPPAAEQVPETPASPTDDGEEPPAVYLSPYIRSRYMQESTPGLPTRLAPRDPRQRNMPPPAVVLPIQTVLSANVEAISDDSSETSSSDDDEEEEEDEDDALTMEHDNTSRETVITTGDPLMQKIDISENPDKIYFIRREDGTVHRGQVLQSRTTENAAAPDEYYVHYVGLNRRLDGWVGRHRISDNADDLGGITVLPAPPLAPDQPSTSREMLAQQAAAAAAASSERQKRAANKDYYLSYCENSRYDYSDRKMTRYQKRRYDEINHVQKSHAELTATQAALEKEHESITKIKYIDKLQFGNYEIDTWYFSPFPEEYGKARTLYVCEYCLKYMRFRSSYAYHLHECDRRRPPGREIYRKGNISIYEVNGKEESLYCQLLCLMAKLFLDHKVLYFDMDPFLFYILCETDKEGSHIVGYFSKEKKSLENYNVACILVLPPHQRKGFGKLLIAFSYELSRKEGVIGSPEKPLSDLGRLSYRSYWAYTLLELMKTRCAPEQITIKELSEMSGITHDDIIYTLQSMKMIKYWKGQNVICVTSKTIQDHLQLPQFKQPKLTIDTDYLVWSPQTAAAVVRAPGNSG
